Some of the results follow.
Compound: COc1ccc(Cn2ccc3ccc(C(=O)NO)cc32)cc1
Assay: dose-dependent thermal stabilisation call (2D-TPP, DLPTP, 10% FDR) (binary (1 = stabilised)); higher = stabilised by the compound
Conditions: system: HL-60 intact cells; concentration range 0.04-10 µM

Sequences of proteins named here, by UniProt entry; tags and fusion partners are left off. A change or cut given only in a name is not applied to a line headed by its entry.
UniProt Q6IN85: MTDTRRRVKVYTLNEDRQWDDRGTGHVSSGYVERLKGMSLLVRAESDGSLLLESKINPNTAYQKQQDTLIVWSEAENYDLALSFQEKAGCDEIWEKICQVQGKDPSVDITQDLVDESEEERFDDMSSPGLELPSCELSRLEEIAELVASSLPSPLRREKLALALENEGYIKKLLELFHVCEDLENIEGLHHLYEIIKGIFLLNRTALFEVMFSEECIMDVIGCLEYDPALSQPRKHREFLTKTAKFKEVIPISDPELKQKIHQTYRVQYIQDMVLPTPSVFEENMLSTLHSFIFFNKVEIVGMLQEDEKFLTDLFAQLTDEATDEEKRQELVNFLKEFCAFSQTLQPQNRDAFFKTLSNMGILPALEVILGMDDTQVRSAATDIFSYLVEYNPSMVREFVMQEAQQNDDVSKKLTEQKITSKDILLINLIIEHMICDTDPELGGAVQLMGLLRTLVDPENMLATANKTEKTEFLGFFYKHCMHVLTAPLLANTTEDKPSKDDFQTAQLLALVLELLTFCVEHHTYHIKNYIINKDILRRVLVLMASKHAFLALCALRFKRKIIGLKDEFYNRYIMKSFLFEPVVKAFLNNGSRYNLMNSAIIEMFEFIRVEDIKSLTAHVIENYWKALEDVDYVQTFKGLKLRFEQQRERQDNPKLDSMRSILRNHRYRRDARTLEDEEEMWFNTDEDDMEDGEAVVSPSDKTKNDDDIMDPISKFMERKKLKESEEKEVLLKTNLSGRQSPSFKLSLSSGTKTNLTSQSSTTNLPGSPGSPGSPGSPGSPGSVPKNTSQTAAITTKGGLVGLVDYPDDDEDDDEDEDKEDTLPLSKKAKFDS
UniProt Q9Y5B9, whole entry: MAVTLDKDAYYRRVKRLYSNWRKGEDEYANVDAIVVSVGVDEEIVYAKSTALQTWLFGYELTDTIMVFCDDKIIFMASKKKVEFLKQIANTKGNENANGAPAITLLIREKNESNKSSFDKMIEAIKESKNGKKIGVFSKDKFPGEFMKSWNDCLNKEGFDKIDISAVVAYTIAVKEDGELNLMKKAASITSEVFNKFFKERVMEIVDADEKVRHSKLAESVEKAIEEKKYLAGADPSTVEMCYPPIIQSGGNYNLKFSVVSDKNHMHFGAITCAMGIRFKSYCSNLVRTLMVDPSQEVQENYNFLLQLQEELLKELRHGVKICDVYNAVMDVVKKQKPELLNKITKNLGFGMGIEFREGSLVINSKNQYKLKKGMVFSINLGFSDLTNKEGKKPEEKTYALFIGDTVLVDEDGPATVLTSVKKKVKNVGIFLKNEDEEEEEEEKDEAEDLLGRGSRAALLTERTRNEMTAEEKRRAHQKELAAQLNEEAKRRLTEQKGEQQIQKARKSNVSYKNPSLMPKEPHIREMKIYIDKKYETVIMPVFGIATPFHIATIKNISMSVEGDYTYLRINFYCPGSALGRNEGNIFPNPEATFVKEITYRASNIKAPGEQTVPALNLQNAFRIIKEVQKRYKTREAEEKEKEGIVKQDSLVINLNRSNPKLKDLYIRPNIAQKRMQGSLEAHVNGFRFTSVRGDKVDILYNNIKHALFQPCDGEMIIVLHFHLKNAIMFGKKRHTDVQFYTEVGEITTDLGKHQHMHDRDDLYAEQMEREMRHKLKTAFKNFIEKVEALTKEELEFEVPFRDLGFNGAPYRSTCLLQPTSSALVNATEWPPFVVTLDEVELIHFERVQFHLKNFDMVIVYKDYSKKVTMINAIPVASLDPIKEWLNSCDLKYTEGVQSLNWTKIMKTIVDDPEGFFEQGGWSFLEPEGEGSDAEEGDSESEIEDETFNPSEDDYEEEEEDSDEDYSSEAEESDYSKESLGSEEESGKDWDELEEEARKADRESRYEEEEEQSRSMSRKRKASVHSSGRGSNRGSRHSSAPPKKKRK
UniProt Q04837: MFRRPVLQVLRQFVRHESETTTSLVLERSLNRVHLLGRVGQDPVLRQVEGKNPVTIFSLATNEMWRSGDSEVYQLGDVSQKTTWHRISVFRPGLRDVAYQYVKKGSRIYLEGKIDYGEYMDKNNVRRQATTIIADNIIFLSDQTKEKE
UniProt Q969G3, whole entry: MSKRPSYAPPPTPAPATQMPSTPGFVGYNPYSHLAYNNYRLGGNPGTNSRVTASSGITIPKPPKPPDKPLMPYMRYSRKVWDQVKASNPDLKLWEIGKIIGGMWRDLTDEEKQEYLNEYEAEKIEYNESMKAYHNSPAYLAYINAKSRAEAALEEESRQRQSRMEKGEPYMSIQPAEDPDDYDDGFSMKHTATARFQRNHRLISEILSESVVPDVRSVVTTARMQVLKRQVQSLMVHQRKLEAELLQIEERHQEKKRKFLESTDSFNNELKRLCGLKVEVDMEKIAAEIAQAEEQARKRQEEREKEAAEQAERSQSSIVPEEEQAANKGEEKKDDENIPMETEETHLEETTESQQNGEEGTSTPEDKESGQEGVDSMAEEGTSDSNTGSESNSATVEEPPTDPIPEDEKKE
UniProt Q96SI9: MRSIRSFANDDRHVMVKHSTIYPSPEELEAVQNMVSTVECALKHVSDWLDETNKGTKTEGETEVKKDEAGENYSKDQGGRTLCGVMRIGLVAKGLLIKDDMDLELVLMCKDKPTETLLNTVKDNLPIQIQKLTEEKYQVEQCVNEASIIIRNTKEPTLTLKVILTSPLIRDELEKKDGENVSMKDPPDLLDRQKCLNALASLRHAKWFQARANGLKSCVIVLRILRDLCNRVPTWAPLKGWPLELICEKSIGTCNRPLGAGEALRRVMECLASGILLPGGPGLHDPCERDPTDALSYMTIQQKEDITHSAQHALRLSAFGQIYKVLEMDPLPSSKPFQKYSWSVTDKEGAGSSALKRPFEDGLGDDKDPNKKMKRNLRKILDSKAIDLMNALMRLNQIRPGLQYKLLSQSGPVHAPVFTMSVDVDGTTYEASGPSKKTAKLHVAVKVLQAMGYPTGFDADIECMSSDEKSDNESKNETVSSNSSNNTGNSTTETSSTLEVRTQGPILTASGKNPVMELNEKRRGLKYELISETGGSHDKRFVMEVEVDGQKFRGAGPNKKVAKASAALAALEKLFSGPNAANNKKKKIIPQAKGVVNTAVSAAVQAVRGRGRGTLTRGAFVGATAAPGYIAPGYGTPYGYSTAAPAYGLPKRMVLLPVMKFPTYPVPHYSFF
UniProt Q13573: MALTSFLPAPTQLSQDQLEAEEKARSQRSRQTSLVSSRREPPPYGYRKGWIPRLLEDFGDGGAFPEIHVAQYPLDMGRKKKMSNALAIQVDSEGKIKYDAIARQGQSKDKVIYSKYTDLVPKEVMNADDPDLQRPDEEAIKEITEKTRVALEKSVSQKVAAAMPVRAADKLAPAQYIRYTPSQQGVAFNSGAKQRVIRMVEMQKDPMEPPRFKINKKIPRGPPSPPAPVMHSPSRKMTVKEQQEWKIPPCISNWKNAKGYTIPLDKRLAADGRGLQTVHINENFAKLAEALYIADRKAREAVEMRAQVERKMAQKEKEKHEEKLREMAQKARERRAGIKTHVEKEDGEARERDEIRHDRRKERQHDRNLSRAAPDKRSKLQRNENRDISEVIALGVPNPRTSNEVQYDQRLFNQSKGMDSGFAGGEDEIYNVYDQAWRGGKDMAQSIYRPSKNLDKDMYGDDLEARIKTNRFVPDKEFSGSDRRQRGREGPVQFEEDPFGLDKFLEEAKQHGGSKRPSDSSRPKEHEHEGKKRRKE
UniProt Q96H20: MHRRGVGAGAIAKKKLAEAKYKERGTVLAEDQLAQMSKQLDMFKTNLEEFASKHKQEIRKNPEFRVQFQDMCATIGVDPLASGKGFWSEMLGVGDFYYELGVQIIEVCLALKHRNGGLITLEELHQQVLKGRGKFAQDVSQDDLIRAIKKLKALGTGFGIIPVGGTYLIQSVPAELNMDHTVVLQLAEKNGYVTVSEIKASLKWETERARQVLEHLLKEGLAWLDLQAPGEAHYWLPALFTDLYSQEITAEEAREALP
UniProt Q9Y2H1: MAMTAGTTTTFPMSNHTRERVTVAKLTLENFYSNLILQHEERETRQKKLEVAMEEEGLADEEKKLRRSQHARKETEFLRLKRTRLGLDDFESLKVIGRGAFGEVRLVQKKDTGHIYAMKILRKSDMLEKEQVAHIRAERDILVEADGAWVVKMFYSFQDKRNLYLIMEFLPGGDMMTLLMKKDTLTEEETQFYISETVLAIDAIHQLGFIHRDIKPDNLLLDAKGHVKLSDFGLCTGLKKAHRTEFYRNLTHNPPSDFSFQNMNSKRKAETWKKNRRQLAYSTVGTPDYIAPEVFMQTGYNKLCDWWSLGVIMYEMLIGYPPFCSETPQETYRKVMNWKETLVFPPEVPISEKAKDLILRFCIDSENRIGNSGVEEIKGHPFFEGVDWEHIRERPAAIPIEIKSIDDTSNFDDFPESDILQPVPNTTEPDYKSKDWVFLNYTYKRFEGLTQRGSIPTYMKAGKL
UniProt P08240: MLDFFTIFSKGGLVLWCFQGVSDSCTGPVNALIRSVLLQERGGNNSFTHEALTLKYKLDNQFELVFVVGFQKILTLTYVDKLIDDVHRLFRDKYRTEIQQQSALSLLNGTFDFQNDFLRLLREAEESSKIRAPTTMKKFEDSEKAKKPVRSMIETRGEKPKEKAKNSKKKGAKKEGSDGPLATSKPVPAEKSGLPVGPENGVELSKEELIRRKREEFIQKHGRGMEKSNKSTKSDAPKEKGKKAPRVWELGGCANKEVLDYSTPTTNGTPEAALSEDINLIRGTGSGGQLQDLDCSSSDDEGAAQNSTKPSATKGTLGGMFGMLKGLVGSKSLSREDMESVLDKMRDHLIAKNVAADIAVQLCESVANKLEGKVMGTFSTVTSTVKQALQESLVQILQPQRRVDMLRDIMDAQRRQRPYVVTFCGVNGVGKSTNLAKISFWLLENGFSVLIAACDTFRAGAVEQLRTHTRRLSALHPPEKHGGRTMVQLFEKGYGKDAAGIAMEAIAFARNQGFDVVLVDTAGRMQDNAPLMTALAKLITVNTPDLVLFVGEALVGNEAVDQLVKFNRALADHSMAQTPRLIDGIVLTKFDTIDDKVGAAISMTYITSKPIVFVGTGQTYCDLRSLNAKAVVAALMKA
UniProt P16150: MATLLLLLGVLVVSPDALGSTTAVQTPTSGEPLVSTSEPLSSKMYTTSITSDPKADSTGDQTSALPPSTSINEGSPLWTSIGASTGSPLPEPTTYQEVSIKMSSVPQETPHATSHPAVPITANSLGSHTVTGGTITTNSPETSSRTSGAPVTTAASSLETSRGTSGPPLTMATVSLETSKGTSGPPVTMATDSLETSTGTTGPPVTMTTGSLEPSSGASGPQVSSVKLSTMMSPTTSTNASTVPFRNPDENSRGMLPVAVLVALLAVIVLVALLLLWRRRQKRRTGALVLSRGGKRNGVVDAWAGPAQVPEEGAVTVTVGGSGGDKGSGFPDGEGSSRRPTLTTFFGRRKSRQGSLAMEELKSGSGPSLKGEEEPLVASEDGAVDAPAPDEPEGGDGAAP
UniProt Q5T5C0: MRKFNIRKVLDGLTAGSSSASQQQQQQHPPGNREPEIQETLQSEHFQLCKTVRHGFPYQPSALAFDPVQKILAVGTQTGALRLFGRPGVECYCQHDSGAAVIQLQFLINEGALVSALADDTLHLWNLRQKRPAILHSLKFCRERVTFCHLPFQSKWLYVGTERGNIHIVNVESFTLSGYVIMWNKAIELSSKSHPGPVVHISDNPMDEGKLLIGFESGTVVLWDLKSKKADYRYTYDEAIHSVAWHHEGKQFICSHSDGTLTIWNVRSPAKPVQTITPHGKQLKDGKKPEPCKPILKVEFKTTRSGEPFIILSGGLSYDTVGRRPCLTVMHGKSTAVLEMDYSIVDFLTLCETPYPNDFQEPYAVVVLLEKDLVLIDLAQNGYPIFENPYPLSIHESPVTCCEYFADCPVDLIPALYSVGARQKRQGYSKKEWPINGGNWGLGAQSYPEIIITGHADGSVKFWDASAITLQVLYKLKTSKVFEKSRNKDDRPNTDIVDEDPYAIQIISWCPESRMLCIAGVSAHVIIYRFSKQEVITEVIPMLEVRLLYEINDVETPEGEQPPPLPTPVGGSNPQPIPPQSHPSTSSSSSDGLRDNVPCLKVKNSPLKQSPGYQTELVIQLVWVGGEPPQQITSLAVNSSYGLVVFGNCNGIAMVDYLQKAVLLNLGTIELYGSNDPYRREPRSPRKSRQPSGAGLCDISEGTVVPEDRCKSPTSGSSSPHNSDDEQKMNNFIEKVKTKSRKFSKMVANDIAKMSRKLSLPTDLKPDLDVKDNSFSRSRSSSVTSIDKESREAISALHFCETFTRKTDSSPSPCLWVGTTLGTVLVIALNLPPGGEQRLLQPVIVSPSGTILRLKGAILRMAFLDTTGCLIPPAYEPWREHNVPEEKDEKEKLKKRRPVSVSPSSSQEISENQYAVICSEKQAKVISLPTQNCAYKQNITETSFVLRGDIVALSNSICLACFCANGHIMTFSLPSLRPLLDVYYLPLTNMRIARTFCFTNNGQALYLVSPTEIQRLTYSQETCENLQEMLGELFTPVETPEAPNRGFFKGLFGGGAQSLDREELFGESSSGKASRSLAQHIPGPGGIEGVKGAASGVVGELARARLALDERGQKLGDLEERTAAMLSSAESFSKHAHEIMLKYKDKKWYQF

Row | Target | dose-dependent thermal stabilisation call
1 | SNRNP40 (UniProt Q96DI7) | inactive: 0
2 | SSSCA1 (UniProt O60232) | inactive: 0
3 | ST6GAL1 (UniProt P15907) | inactive: 0
4 | SMEK1 (UniProt Q6IN85) | inactive: 0
5 | SUZ12 (UniProt Q15022) | inactive: 0
6 | SUPT16H (UniProt Q9Y5B9) | inactive: 0
7 | SRRM1 (UniProt Q8IYB3) | inactive: 0
8 | SYPL1 (UniProt Q16563) | inactive: 0
9 | SP3 (UniProt Q02447) | inactive: 0
10 | SSBP1 (UniProt Q04837) | inactive: 0
11 | SMARCE1 (UniProt Q969G3) | inactive: 0
12 | STRBP (UniProt Q96SI9) | inactive: 0
13 | SPRY2 (UniProt O43597) | inactive: 0
14 | STX10 (UniProt O60499) | inactive: 0
15 | SNW1 (UniProt Q13573) | inactive: 0
16 | SPPL2A (UniProt Q8TCT8) | inactive: 0
17 | SPR (UniProt P35270) | active: 1
18 | SNF8 (UniProt Q96H20) | inactive: 0
19 | SMARCA4 (UniProt P51532) | inactive: 0

2 records picked at random from the list so far:
Row | Target | dose-dependent thermal stabilisation call
15 | SNW1 (UniProt Q13573) | inactive: 0
6 | SUPT16H (UniProt Q9Y5B9) | inactive: 0

Remaining list, next part

Row | Target | dose-dependent thermal stabilisation call
20 | SYNGR2 (UniProt O43760) | inactive: 0
21 | SUPV3L1 (UniProt Q8IYB8) | inactive: 0
22 | SMPDL3B (UniProt Q92485) | inactive: 0
23 | STOML2 (UniProt Q9UJZ1) | inactive: 0
24 | TACC1 (UniProt O75410) | inactive: 0
25 | SMC5 (UniProt Q8IY18) | inactive: 0
26 | SYAP1 (UniProt Q96A49) | inactive: 0
27 | SYTL1 (UniProt Q8IYJ3) | inactive: 0
28 | SPCS1 (UniProt Q9Y6A9) | inactive: 0
29 | SRGAP2 (UniProt O75044) | inactive: 0
30 | SPCS3 (UniProt P61009) | inactive: 0
31 | STK38L (UniProt Q9Y2H1) | inactive: 0
32 | SRPR (UniProt P08240) | inactive: 0
33 | STIP1 (UniProt P31948) | inactive: 0
34 | SPN (UniProt P16150) | inactive: 0
35 | SNRNP27 (UniProt Q8WVK2) | inactive: 0
36 | SNRPD2 (UniProt P62316) | inactive: 0
37 | STXBP5 (UniProt Q5T5C0) | inactive: 0

From the supplement of paper PMC7666118
